According to paper PMC12255758:
No constants are given. Whether binding was seen depends on the method and setting. Binding seen in cells or lysates may run through a third protein. A yes stands for co-enrichment or nearness to the bait. Other partners may have been found.

Chains of the proteins cited; added tags and fusions are not shown.
UniProt Q9UNE7: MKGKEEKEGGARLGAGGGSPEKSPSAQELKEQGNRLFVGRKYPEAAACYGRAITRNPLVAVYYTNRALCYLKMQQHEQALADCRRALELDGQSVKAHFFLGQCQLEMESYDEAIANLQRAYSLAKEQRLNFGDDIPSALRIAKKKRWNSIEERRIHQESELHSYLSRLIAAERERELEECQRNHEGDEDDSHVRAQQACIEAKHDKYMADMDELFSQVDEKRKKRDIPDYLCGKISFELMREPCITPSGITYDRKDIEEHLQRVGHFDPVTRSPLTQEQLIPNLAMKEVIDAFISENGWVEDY

Target: Flag-tagged full-length STUB1 (UniProt Q9UNE7)
Experiment: affinity purification with mass spectrometry; Flag-STUB1 and associated proteins captured from cell lysates with anti-Flag magnetic beads; complexes separated on a gel, silver stained, mass spectrometry

binding: binds
B1: endogenous GOT2 (enzyme, UniProt P00505 30-430)
chain: SSWWTHVEMGPPDPILGVTEAFKRDTNSKKMNLGVGAYRDDNGKPYVLPSVRKAEAQIAAKNLDKEYLPIGGLAEFCKASAELALGENSEVLKSGRFVTVQTISGTGALRIGASFLQRFFKFSRDVFLPKPTWGNHTPIFRDAGMQLQGYRYYDPKTCGFDFTGAVEDISKIPEQSVLLLHACAHNPTGVDPRPEQWKEIATVVKKRNLFAFFDMAYQGFASGDGDKDAWAVRHFIEQGINVCLCQSYAKNMGLYGERVGAFTMVCKDADEAKRVESQLKILIRPMYSNPPLNGARIAAAILNTPDLRKQWLQEVKVMADRIIGMRTQLVSNLKKEGSTHNWQHITDQIGMFCFTGLKPEQVERLIKEFSIYMTKDGRISVAGVTSSNVGYLAHAIHQVTK
